Test results taken from paper PMC6358605.

Target: Full-length wild-type Chinese hamster BiP (Chinese hamster)
Assay: fluorescence polarisation; 40 µM BiP incubated with 1.5 µM LY-labeled peptide and 0.5 mM ADP overnight at room temperature in FP buffer; dissociation then induced with 4 mM ATP, with or without MANF proteins; both purified

binding: binds
Binder: HTFPAVLGSC (lucifer yellow (LY) label) [lucifer yellow (LY)-labeled substrate peptide]

Results are given in words; binding and its absence hold for the method and conditions named. A result given as binding can be weak or reduced; the word gives no strength. Sequences can lack the tags named with a protein.
